Where a name gives a salt, the structure may show the parent alone. The data scatter; read single values as rough.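 Viability of TSC2-lost, immortalized human renal angiomyolipoma cells bearing an empty vector was measured by luminescent ATP assay, normalized to each plate's vehicle-treated wells, in low-serum medium, where TSC2-rescued cells do not grow.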 Where a SMILES comes first, the peptide text is derived from it. The star is where a group is joined. Cbz = O=C(OCc1ccccc1)*
Tested on: 621-102 (TSC2-deficient)
Test: relative viability vs DMSO (fraction); higher = less cytotoxic
Conditions: serum: 0.1% FBS, 72 h

Compound | relative viability (0.0128 nM) | relative viability (0.064 nM) | relative viability (0.32 nM) | relative viability (1.6 nM) | relative viability (8 nM) | relative viability (40 nM) | relative viability (200 nM) | relative viability (1000 nM) | relative viability (5000 nM)
Nc1nc(=O)n([C@@H]2CS[C@H](CO)O2)cc1F [Emtricitabine] | 0.645 | 0.71 | 0.738 | 0.772 | 0.695 | 0.716 | 0.652 | 0.486 | 0.198
CC(C)C[C@H](NC(=O)CNC(=O)c1cc(Cl)ccc1Cl)B(O)O [MLN2238] | 0.882 | 0.823 | 0.779 | 0.68 | 0.658 | 0.552 | 0.153 | 0.0322 | 0.0258
O=C(/C=C/c1ccc(CN(CCO)CCc2c[nH]c3ccccc23)cc1)NO [LAQ824] | 0.795 | 0.817 | 0.771 | 0.825 | 0.844 | 0.367 | 0.0481 | 0.0127 | 0.0133
COc1cc2c(Oc3ccc4[nH]c(C)cc4c3F)ncnc2cc1OCCCN1CCCC1 [AZD2171] | 0.764 | 0.876 | 0.871 | 0.716 | 0.803 | 0.851 | 0.724 | 0.446 | 0.0589
CC(C)C[C@@H](C=O)NC(=O)[C@H](CC(C)C)NC(=O)[C@H](CC(C)C)NC(=O)OCc1ccccc1 [MG132] (Cbz-Leu-Leu-Leu-aldehyde) | 0.871 | 0.868 | 0.914 | 0.77 | 0.783 | 0.686 | 0.0159 | 0.0111 | 0.0124
CC1(C)CC(=O)c2c(C(F)(F)F)nn(-c3ccc(C(N)=O)c(N[C@H]4CC[C@H](O)CC4)c3)c2C1 [SNX-2112] | 0.901 | 0.918 | 0.906 | 0.814 | 0.611 | 0.0842 | 0.0168 | 0.00979 | 0.0149
CCOC(=O)[C@H](CCc1ccccc1)N[C@H]1CCc2ccccc2N(CC(=O)O)C1=O [Benazepril HCl] | 0.632 | 0.66 | 0.816 | 0.734 | 0.767 | 0.764 | 0.793 | 0.736 | 0.811
Clc1cccc(Cl)c1NC1=NCCN1 [Clonidine HCl] | 0.26 | 0.178 | 0.24 | 0.836 | 0.835 | 0.164 | 0.296 | 0.187 | 0.478
NC(=O)[C@@H](CCC(F)(F)F)N(Cc1ccc(-c2ncon2)cc1F)S(=O)(=O)c1ccc(Cl)cc1 | 0.82 | 0.765 | 0.855 | 0.852 | 0.773 | 0.933 | 0.746 | 0.659 | 0.61
O=C(NC[C@H]1CN(c2ccc(N3CCOCC3=O)cc2)C(=O)O1)c1ccc(Cl)s1 [Rivaroxaban] | 0.853 | 0.83 | 0.771 | 0.778 | 0.727 | 0.763 | 0.794 | 0.758 | 0.65
CCS(=O)(=O)Nc1ccc2c(c1)/C(=C(/Nc1ccc(CN3CCCCC3)cc1)c1ccccc1)C(=O)N2 [Hesperadin] | 0.878 | 0.748 | 0.881 | 0.897 | 0.343 | 0.0346 | 0.0223 | 0.00646 | 0.00811
CN(c1ncccc1CNc1nc(Nc2ccc3c(c2)CC(=O)N3)ncc1C(F)(F)F)S(C)(=O)=O | 0.571 | 0.757 | 0.746 | 0.745 | 0.785 | 0.639 | 0.638 | 0.586 | 0.0897
Cn1c(Nc2ccc(C(F)(F)F)cc2)nc2cc(Oc3ccnc(-c4ncc(C(F)(F)F)[nH]4)c3)ccc21 [RAF265] | 0.802 | 0.82 | 0.848 | 0.828 | 0.811 | 0.62 | 0.208 | 0.0928 | 0.0371
N#Cc1c(O)c2c(-c3ccc(-c4ccccc4O)cc3)csc2[nH]c1=O | 0.868 | 0.823 | 0.809 | 0.8 | 0.843 | 0.822 | 0.809 | 0.802 | 0.749
Cc1ccccc1-n1c(Cn2cnc3c(N)ncnc32)nc2cccc(C)c2c1=O | 0.79 | 0.81 | 0.791 | 0.838 | 0.825 | 0.837 | 0.794 | 0.665 | 0.602
CCN1CCN(Cc2ccc(-c3cc4c(N[C@H](C)c5ccccc5)ncnc4[nH]3)cc2)CC1 [AEE788] | 0.257 | 1.07 | 1.34 | 1.47 | 1.13 | 1.15 | 1.01 | 0.0269 | 0.019
COc1cc2ncnc(-n3nc(-c4ccccn4)nc3N)c2cc1OC | 0.763 | 0.922 | 0.947 | 0.333 | 0.867 | 0.682 | 0.86 | 0.779 | 0.693
CC1(C)CCC(c2ccc(Cl)cc2)=C(CN2CCN(c3ccc(C(=O)NS(=O)(=O)c4ccc(N[C@H](CCN5CCOCC5)CSc5ccccc5)c(S(=O)(=O)C(F)(F)F)c4)cc3)CC2)C1 [ABT-263 (Navitoclax)] | 0.805 | 0.792 | 0.704 | 0.761 | 0.718 | 0.571 | 0.468 | 0.315 | 0.0114
C[C@H](NC(=O)Cc1cc(F)cc(F)c1)C(=O)N[C@H](C(=O)OC(C)(C)C)c1ccccc1 [DAPT (GSI-IX)] | 0.616 | 0.607 | 0.671 | 0.656 | 0.513 | 0.421 | 0.412 | 0.432 | 0.6
Cc1cc(NS(=O)(=O)c2ccc(N)cc2)no1 [Sulfamethoxazole] | 0.67 | 0.673 | 0.717 | 0.732 | 0.721 | 0.665 | 0.631 | 0.606 | 0.538
CCC(C)n1ncn(-c2ccc(N3CCN(c4ccc(OCC5COC(Cn6cncn6)(c6ccc(Cl)cc6Cl)O5)cc4)CC3)cc2)c1=O (stereo not given) [Itraconazole] | 0.966 | 0.894 | 0.884 | 0.967 | 0.872 | 0.865 | 0.693 | 0.15 | 0.0141
O=c1cc(N2CCOCC2)oc2c(-c3ccccc3)cccc12 | 0.869 | 0.892 | 1.01 | 0.864 | 0.605 | 0.559 | 0.735 | 0.869 | 0.61
COc1cc([C@@H]2c3cc4c(cc3[C@@H](O[C@@H]3O[C@@H]5CO[C@@H](C)O[C@H]5[C@H](O)[C@H]3O)[C@H]3COC(=O)[C@H]23)OCO4)cc(OC)c1O [Etoposide] | 0.862 | 0.926 | 1.06 | 1.01 | 0.945 | 0.308 | 0.336 | 0.0672 | 0.0313

Compound | relative viability (0.0128 nM) | relative viability (0.064 nM) | relative viability (0.32 nM) | relative viability (1.6 nM) | relative viability (8 nM) | relative viability (40 nM) | relative viability (200 nM) | relative viability (1000 nM) | relative viability (5000 nM)
O=C(c1ccc(F)cc1)N1CCC[C@H](c2nc(-c3ccc(F)cc3)no2)C1 | 0.666 | 0.789 | 0.569 | 0.821 | 0.683 | 0.597 | 0.501 | 0.589 | 0.394
Nc1nc(F)nc2c1ncn2[C@@H]1O[C@H](COP(=O)(O)O)[C@@H](O)[C@@H]1O [Fludarabine Phosphate] | 0.754 | 0.814 | 0.662 | 0.745 | 0.652 | 0.766 | 0.787 | 0.706 | 0.428
CC(C)(Oc1ccc(C2CC2(Cl)Cl)cc1)C(=O)O (stereo not given) [Ciprofibrate] | 0.688 | 0.692 | 0.724 | 0.0997 | 0.795 | 0.768 | 0.813 | 0.924 | 0.771
Cc1cc(Nc2nc(N[C@@H](C)c3ccc(F)cc3)c(C#N)cc2F)n[nH]1 [AZ 960] | 0.659 | 0.526 | 0.589 | 0.208 | 0.121 | 0.382 | 0.462 | 0.0455 | 0.0177
CC1(C)CNc2cc(NC(=O)c3cccnc3NCc3ccncc3)ccc21 [Motesanib Diphosphate] | 0.918 | 0.874 | 0.922 | 0.835 | 0.807 | 0.702 | 0.792 | 0.675 | 0.648
Cc1cc(C(C)Nc2ccccc2)c2nc(N3CCOCC3)cc(=O)n2c1 (stereo not given) [TGX-221] | 0.878 | 0.907 | 0.891 | 0.82 | 0.748 | 0.841 | 0.721 | 0.699 | 0.613
CC1(COc2ccc3c(c2)ncn3-c2ccc3cccc(N4CCC(N)CC4)c3n2)COC1 | 0.843 | 0.979 | 0.999 | 0.89 | 0.576 | 0.699 | 0.671 | 0.613 | 0.012
CC(/C=C/C(=O)NO)=C\[C@@H](C)C(=O)c1ccc(N(C)C)cc1 [Trichostatin A] | 0.767 | 0.805 | 0.797 | 0.752 | 0.654 | 0.632 | 0.582 | 0.491 | 0.33
CCOc1cc2ncc(C#N)c(Nc3ccc(OCc4ccccn4)c(Cl)c3)c2cc1NC(=O)/C=C/CN(C)C [Neratinib (HKI-272)] | 0.954 | 0.9 | 0.894 | 0.886 | 0.726 | 0.807 | 0.825 | 0.578 | 0.0119
O=C(c1ccc(/C=C/c2n[nH]c3ccccc23)cc1)N1CCNCC1 [KW 2449] | 0.822 | 0.892 | 0.798 | 0.778 | 0.79 | 0.726 | 0.792 | 0.0313 | 0.0165
COc1cc2ncnc(Nc3ccc(F)c(Cl)c3)c2cc1OCCCN1CCOCC1 [Gefitinib (ZD1839)] | 0.734 | 0.941 | 0.882 | 1.05 | 0.824 | 0.865 | 0.899 | 0.747 | 0.558
Cc1cn(-c2cc(NC(=O)c3ccc(C)c(Nc4nccc(-c5cccnc5)n4)c3)cc(C(F)(F)F)c2)cn1 [Nilotinib (AMN-107)] | 0.895 | 0.826 | 0.733 | 0.748 | 0.831 | 0.984 | 0.768 | 0.293 | 0.012
C[C@]12C=CC(=O)N[C@@H]1CC[C@@H]1[C@@H]2CC[C@]2(C)[C@@H](C(=O)Nc3cc(C(F)(F)F)ccc3C(F)(F)F)CC[C@@H]12 [Dutasteride] | 0.722 | 0.711 | 0.715 | 0.645 | 0.654 | 0.564 | 0.516 | 0.483 | 0.534
O=C(CCCCCCC(=O)Nc1ccccc1)NO [Vorinostat] | 0.737 | 0.738 | 0.68 | 0.555 | 0.715 | 0.704 | 0.606 | 0.366 | 0.134
N#CC1(c2ccc(NC(=O)c3cccnc3NCc3ccncc3)cc2)CCCC1 [Apatinib] | 1.18 | 1.18 | 0.346 | 0.148 | 0.383 | 0.333 | 0.3 | 0.536 | 0.579
O=C(O)Cc1ccccc1Nc1c(Cl)cccc1Cl [Diclofenac Sodium] | 0.777 | 0.669 | 0.66 | 0.692 | 0.645 | 0.596 | 0.609 | 0.51 | 0.55
Cc1cc(C(=O)NOCCO)c(Nc2ccc(I)cc2F)n(C)c1=O [AZD8330] | 0.905 | 0.886 | 0.932 | 0.911 | 0.949 | 0.874 | 0.733 | 0.258 | 0.0106
N#CCNC(=O)c1ccc(-c2ccnc(Nc3ccc(N4CCOCC4)cc3)n2)cc1 [Cyt387] | 0.782 | 0.773 | 0.743 | 0.782 | 0.678 | 0.587 | 0.556 | 0.455 | 0.0659
CCCN[C@H]1CCc2nc(N)sc2C1 [Pramipexole dihydrochloride monohydrate] | 0.881 | 0.868 | 0.883 | 0.875 | 0.885 | 0.886 | 0.81 | 0.77 | 0.763
COc1cccc2cc(-c3nc([C@H]4CC[C@H](C(=O)O)CC4)n4ncnc(N)c34)[nH]c12 [OSI-027] | 0.73 | 0.712 | 0.681 | 0.71 | 0.743 | 0.739 | 0.741 | 0.799 | 0.489
Nc1ccn([C@@H]2O[C@H](CO)[C@@H](O)C2(F)F)c(=O)n1 [Gemcitabine HCl] | 0.817 | 0.71 | 0.733 | 0.082 | 0.0166 | 0.0176 | 0.0209 | 0.0169 | 0.0166
Cc1ccc(S(=O)(=O)OCC(=O)Nc2ccc(C(=O)O)c(O)c2)cc1 [S31-201] | 0.851 | 0.769 | 0.822 | 0.835 | 0.783 | 0.727 | 0.823 | 0.84 | 0.954

Structural class, the entries above with a thiophene ring, fused or not.
Compound | relative viability (0.0128 nM) | relative viability (0.064 nM) | relative viability (0.32 nM) | relative viability (1.6 nM) | relative viability (8 nM) | relative viability (40 nM) | relative viability (200 nM) | relative viability (1000 nM) | relative viability (5000 nM)
O=C(NC[C@H]1CN(c2ccc(N3CCOCC3=O)cc2)C(=O)O1)c1ccc(Cl)s1 [Rivaroxaban] | 0.853 | 0.83 | 0.771 | 0.778 | 0.727 | 0.763 | 0.794 | 0.758 | 0.65
N#Cc1c(O)c2c(-c3ccc(-c4ccccc4O)cc3)csc2[nH]c1=O | 0.868 | 0.823 | 0.809 | 0.8 | 0.843 | 0.822 | 0.809 | 0.802 | 0.749

Source: the supplement of paper PMC8960247
